Measurements as given in patent publication US20250101108A1, “METHODS TO ENHANCE THERAPEUTIC EFFICACY IN MELANOMA VIA MODULATION OF CELL SURFACE PD-L1/L2” (THE REGENTS OF THE UNIVERSITY OF CALIFORNIA, priority 2021, published 2025).
For at least one compound, name, drawing or mass did not settle the structure.

Legend:
[1] = test system: YUMM1.7ER melanoma tumors; assay: Subcutaneous syngeneic YUMM1.7ER tumors on trametinib, acquired MAPKi-resistance; type: in vivo; details: trametinib without AK087 co-treatment (daily vehicle)
tumor cell-surface PD-L1 = assay: FACS analysis of tumor cell-surface PD-L1 of dissociated YUMM1.7ER tumors; type: in vivo, mouse; details: 7 days

SMILES: CC(=O)Nc1cccc(-n2c(=O)n(C3CC3)c(=O)c3c(Nc4ccc(I)cc4F)n(C)c(=O)c(C)c32)c1 [trametinib]
- complete responses [1]: 0 of 9
- tumor cell-surface PD-L1 protein (tumor cell-surface PD-L1; YUMM1.7ER tumors, trametinib 1 mg/kg/d): upregulated
- tumor cell-intrinsic surface-level of PD-L1 (tumor cell-surface PD-L1; YUMMER1.7 tumors, trametinib 0.45 mg/kg/day): induced
